# Reference: PubChem BioAssay AID1458 (National Center for Advancing Translational Sciences (NCATS), 2008)
# In all, about 210,000 compounds went through this assay and about 5,900 (2.8%) were called active. Inconclusive results (about 5%) are left out. The call rests on the fitted dose curve; in most records, active means well fitted activation curve with a large enough effect; inconclusive means small, poorly fitted or top-dose-only effect; inactive means no such curve, though single readings can be large or run the other way. Only a part is listed here, and it is no random draw. The source gives no active or inactive call for entries shown without one.
# Assay: qHTS Assay for Enhancers of SMN2 Splice Variant Expression; further: nearly all actives have a fitted effect of over 55% in size; on activity change, positive = activation: % of control where 0% means no effect
# Settings: HEK293 SMN2-luciferase splicing reporter, luminescence, 30-36 h; activity change, positive = activation: at 46.1 µM (top of the series) unless noted
# Excerpt: NIH Chemical Genomics Center [NCGC] NIH Molecular Libraries Probe Production centers Network [MLPCN] MLPCN Grant: R03 MH084179-01 Assay Submitter (PI): Elliot Androphy NCGC Assay Overview: Spinal muscular atrophy (SMA) is caused by insufficient levels of the survival motor neuron protein SMN. The SMN locus on chromosome 5q13 contains two inverted copies of SMN called SMN1 and SMN2 which are 99% identical at the amino acid level. SMN1 is a fully functional protein and SMN2 skips exon 7 90% of the time. Skipping of exon 7 produces non-functional protein product. 10% of the SMN2 protein includes exon 7 and is fully functional. In the SMA disease state, mutations in the SMN1 locus are the cause of the disease state. Because only 10% of SMN2 is of the fully functional form, it is not sufficient to overcome the deficiency produced by the loss of the SMN1 product. A therapy that either increase the amount of SMN2 product made or to increase the inclusion of exon 7 has been proposed for the treatment of SMA. We have designed an assay to identify small molecules that can increase the amount of functional SMN2 product by appending a luciferase reporter gene after the native SMN2 gene, such that inclusion of exon 7 in the expressed product places the luciferase sequence in frame, thus generating functional luciferase enzyme.
# NCGC Assay Protocol Summary: This screen utilizes a luciferase reporter gene assay, combining the promoter and splicing based cassettes in tandem with the major portion of the native SMN2 cDNA, and then transfected into HEK293 cells. Compounds that increase luciferase signal presumably enhance expression of the functional SMN2 splice variant. Passaging media contained DMEM w/ glutamax (+phenol red) 10% FCS, 1x pen/strep, 200 ug/ml hygro, 1x sodium pyruvate. Assay media contained DMEM w/ glutamax (-phenol red) 10% FCS, 1x pen strep, 1x pyruvate Sequence, Parameter, Value, Description (1) Cells, […], 2000 cells/well, 1536 TC treated White solid bottom plate (2) Time, 10-12 hours, 37C 5% CO2 (3) Compound, 23 nl, MLSMR Library (4) Control Compound, 23 nL, Sodium butyrate st 4.5mM (final) conc (5) Time, 30-36 hours, 37C 5% CO2 (6) Reagent, 3 ul, One Glo (TM) from Promega (7) Time, 5-15 minutes, Room temp (8) Detector, Viewlux: luminescent read, 60 second integration, high speed 2x binning Keywords: Spinal muscular atrophy, SMA, SMN2, high throughput screening, MLSMR, MLPCN, NIH Roadmap, qHTS and NCGC
# Potency means the concentration at half of the fitted maximal effect.
SMILES,"activity change, positive = activation",Potency
CN(C)N1C(N)=C(C#N)C(c2cccs2)C2=C1CC(C)(C)CC2=O (centres undefined),inactive: -51.7%,–
Cc1cc(C)c(C#N)c(SCc2nnc(-c3ccccc3[N+](=O)[O-])o2)n1,–,active: 1.12 µM
Cc1cccc(S(=O)(=O)Nc2ccc(-c3nc4ccc(C)cc4s3)cc2)c1,–,active: 11.2 µM
COc1ccc(Cn2c3nc4ccccc4nc3c3c(=O)n(Cc4ccco4)c(C)nc32)cc1,35.3%,–
Cc1occc1C(=O)Nc1cccc2ccccc12,–,active: 3.16 µM
COc1cc2[nH]c(=S)n(C3CCCC3)c(=O)c2cc1OC,59.8%,–
Cc1ccc(C(=O)N2c3ccccc3CC2C)o1 (centres undefined),–,active: 15.8 µM
CCC(=O)c1ccc(N2CCN(C(=O)c3ccc(Br)cc3)CC2)c(F)c1,-49.2%,–
CCOCC(=O)Nc1nc2c(s1)C(=O)CC(C)(C)C2,32%,–
CN(C(=O)CSc1nnc(Nc2ccccc2)s1)c1c(N)n(Cc2ccccc2)c(=O)[nH]c1=O,29%,–
CCN(CC(=O)Nc1cc(C)c(Cl)cc1OC)CC(=O)NC1CCS(=O)(=O)C1 (centres undefined),35%,–
Cc1nc2scc(C)n2c(=O)c1S(=O)(=O)NCc1ccccc1Cl,40.1%,–
O=C(Nc1c(C(=O)N2CCOCC2)cnn1-c1ccccc1Cl)c1ccco1,32.8%,–
O=C(Nc1cnccn1)Nc1ccc(Cl)cc1Cl,57.8%,–
COc1cccc(N=Nc2c(N)[nH][nH]c2=O)c1,–,active: 10 µM
COC(=O)COc1cc(OCC(=O)OC)c2c(C)c(Cl)c(=O)oc2c1,33.9%,–
Cc1ccc(NC(=O)N2N=C(c3ccc(F)cc3)CC2c2ccc(F)cc2)cc1 (centres undefined),4.7%,–
CCOC(=O)/C(=N\Nc1ccccc1Cl)N(C)C1CCS(=O)(=O)C1 (centres undefined),26.3%,–
O=C1c2cccc(OCC(=O)N3CCCc4ccccc43)c2CCN1Cc1ccc(F)cc1,inactive: -87%,–
COC(=O)c1cc(CSc2nc3ccccc3[nH]2)oc1C,inactive: -44.9%,–
COc1ccc(C(=O)/C=C(\C)NCc2ccc3c(c2)OCO3)cc1,30.3%,–
c1ccc(-n2ncc3c2ncn2nc(-c4ccco4)nc32)cc1,–,active: 11.2 µM
O=C(c1ccc(F)cc1)c1ccc(N2CCCC2)cc1,98.6%,–
COc1cc(C2C=C(Nc3ccccc3)C(=O)N2c2ccccc2)ccc1O (centres undefined),-94.5%,–
Clc1cccc(-c2nnc(-c3ccccc3)o2)c1,–,active: 12.6 µM
CNc1nnc(-c2ccc(N(C)C)cc2)s1,–,active: 2.82 µM
CCOCc1nnc(NC(=O)c2ccc(OC)cc2)s1,–,active: 17.8 µM

SMILES,"activity change, positive = activation",Potency
COCCNC(=O)c1cc2sc3ccccc3c2s1,–,active: 14.1 µM
Clc1ccc(SCCn2cncn2)cc1,34.3%,–
Clc1ccc(CCNC(c2nnc(-c3ccccc3)o2)c2ccccc2Cl)cc1 (centres undefined),33.2%,–
CN1/C(=C\C(=O)c2ccccc2Cl)c2ccccc2CC1(C)C,49.7% [at 1.84 µM],–
CCOC(=O)C1(C(=O)O)NC(=O)CC1c1ccccc1 (centres undefined),inactive: -14.1%,–
Cc1cc(C(=O)Nc2sc(C)c(C)c2C#N)no1,88.1%,–
COc1cccc(NC(=O)Cn2cc(C#N)c3ccccc32)c1,-33.2%,–
Cn1nnnc1SCCNCc1ccc(OCc2ccc(Cl)cc2)cc1,inactive: -55.1%,–
O=C(CN1C(=O)NC2(CCCCCC2)C1=O)c1ccc2c(c1)OCCO2,–,active: 17.8 µM
CCCCNC(=O)C1CCC(CNc2nc(=S)[nH]c3ccccc23)CC1 (centres undefined),-30.7%,–
CCOC(=O)C1CCCN(C(=O)c2cnn3c(C(F)F)cc(-c4ccc(C)cc4)nc23)C1 (centres undefined),33.2%,–
Cc1ccc(S(=O)(=O)Oc2ccc(N3C(=O)C4C5CCC(C5)C4C3=O)cc2)cc1 (centres undefined),inactive: -48.4%,–
CC(=NCC1CCCO1)C1=C(O)CC(C)(C)CC1=O (centres undefined),37.6%,–
CCn1cnc2c1c(=O)n(Cc1nnc3n1-c1ccccc1SC3)c(=O)n2Cc1ccccc1,48%,–
O=C(c1ccc(CS(=O)(=O)c2c(Cl)cccc2Cl)o1)N1CCN(c2ccccc2)CC1,inactive: -41.4%,–
Cc1ccc2nc(NC(=O)C3CCN(S(=O)(=O)c4cccnc4)CC3)sc2c1,inactive: -32.2%,–
CCN(CC)S(=O)(=O)c1ccc2oc(C(=O)NCc3ccccc3OC)c(C)c2c1,inactive: -39.5%,–
O=C(CCSc1nnc2scc(-c3ccccc3)n12)NCc1ccc2c(c1)OCO2,37.2%,–
COc1ccc(C(C#N)Nc2ccccc2)cc1 (centres undefined),-47.1%,–
Cc1cc(C(F)(F)F)c(C#N)c(SCC(=O)NC(C)(C)C)n1,37.9%,–
O=[N+]([O-])c1ccc(N2CCN(C(=S)NC3CCCCC3)CC2)cc1,-39.6%,–
O=C(CCc1nc2ccccc2[nH]1)N1CCN(C(=O)c2ccco2)CC1,11.8%,–
CC1CCC(C(C)C)C(OP(=O)(c2ccccc2)C(O)c2ccncc2)C1 (centres undefined),-54.2%,–
Cc1ccccc1NC(=S)N=Nc1c(O)n(C)c2ccc(S(=O)(=O)N3CCOCC3)cc12,-33.5%,–
CCOc1ccc(NC(=S)NC(=O)/C=C/c2ccc(C)cc2)c([N+](=O)[O-])c1,-55.8%,–
C=CC[n+]1ccc(/C=C2\C=Cc3cc(C)ccc3N2CC)c2ccccc21,inactive: -98.3%,–
O=C(CC(=O)c1ccccc1O)c1ccc(F)cc1,inactive: -47.1%,–

# Some values from the list.
# In Potency, O=C(CN1C(=O)NC2(CCCCCC2)C1=O)c1ccc2c(c1)OCCO2 is entered as active: 17.8 µM
# In activity change, positive = activation, CC(=NCC1CCCO1)C1=C(O)CC(C)(C)CC1=O (centres undefined) is entered as 37.6%
# In activity change, positive = activation, CCOC(=O)C1CCCN(C(=O)c2cnn3c(C(F)F)cc(-c4ccc(C)cc4)nc23)C1 (centres undefined) is entered as 33.2%
